Test results: patent publication US20250369124A1, “IMIDAZOLINE-SUGAR CONJUGATE COMPOSITIONS AND METHODS FOR INHIBITING CORROSION” (Ecolab USA Inc., priority 2024, published 2025)

Assay: Wheel box test (NACE publication ID182), corrosion of carbon steel coupons in CO2-saturated brine/oil
Details: for MPY / Weight Loss Mg.: 80° C., 24 hours, CO2 saturated, 80% ASTM Seawater brine / 20% LVT-200
Source text: To determine the efficacy of the compositions as corrosion inhibitors, a wheel box test was used. It is a testing methodology from NACE publication ID182. The method is used to assess the degree of protection afforded to a metal surface that is in contact with water laden with carbon dioxide (C02). The wheel box test is a test that is often used in the field for comparative corrosion inhibitor performance tests. The standard test conditions used in the performance test are in Table 1.
A continuous wheel box test procedure was used to compare the performance of the corrosion inhibitor formulations of the invention in mitigating the corrosion of carbon steel in solutions saturated with carbon dioxide. Into a set of bottles containing the desired brine and oil mixtures, Table 1, clean and pre-weighed coupons were immersed. The solution was purged with carbon dioxide, after which the solutions were dosed with the various concentrations of the formulations. After purging the headspace with carbon dioxide, the bottles were immediately capped to prevent aerial exposure.
Blanks, comprising bottles of untreated mixtures, were used to determine the baseline corrosion rate under the test conditions. The bottles were placed on a rotating wheel under incubation at 80° C. for a period of 24 hours. Following the completion of the incubation, the bottles were retrieved and left to cooled to room temperature. The coupons were removed from the test solutions, cleaned, dried, sandblasted and re-weighed. By comparing the mass loss of the coupons immersed in treated solutions versus the mass loss for coupons placed in untreated solutions, the corrosion rate and protection efficiency were calculated.

[1] = 500 ppm inhibitor, listed as Formulation 1, acetate salt
[2] = 1000 ppm inhibitor, listed as Formulation 1, acetate salt
[3] = 2000 ppm inhibitor, listed as Formulation 1, acetate salt
[4] = 5000 ppm inhibitor, listed as Formulation 1, acetate salt
[5] = 10000 ppm inhibitor, listed as Formulation 1, acetate salt
[6] = 20000 ppm inhibitor, listed as Formulation 1, acetate salt
[7] = 50000 ppm inhibitor, listed as Formulation 1, acetate salt
[8] = 500 ppm inhibitor, listed as Formulation 2, acetate salt
[9] = 1000 ppm inhibitor, listed as Formulation 2, acetate salt
[10] = 2000 ppm inhibitor, listed as Formulation 2, acetate salt
[11] = 5000 ppm inhibitor, listed as Formulation 2, acetate salt
[12] = 10000 ppm inhibitor, listed as Formulation 2, acetate salt
[13] = 20000 ppm inhibitor, listed as Formulation 2, acetate salt
[14] = 50000 ppm inhibitor, listed as Formulation 2, acetate salt

CC(=O)O.CCCCCCCC/C=C\CCCCCCCC1=NCCN1CCNC1OC(CO)C(O)C(O)C1O (centres unmarked) [Formula 1, (Z)-2-((2-(2-(heptadec-8-en-1-yl)-4,5-dihydro-1H-imidazol-1-yl)ethyl)amino)-6-(hydroxymethyl)tetrahydro-2H-pyran-3,4,5-triol acetate salt]
improvement of % Protection over Comparative Formulation (5 ppm of Corrosion Inhibitor): (54% improvement) | improvement of % Protection over Comparative Formulation (10 ppm of Corrosion Inhibitor): (33% improvement) | improvement of % Protection over Comparative Formulation (25 ppm of Corrosion Inhibitor): (29% improvement) | improvement of % Protection over Comparative Formulation (50 ppm of Corrosion Inhibitor): (15% improvement) | MPY [1]: 2.07 MPY and 2.01 MPY | Weight Loss Mg. [1]: 3.4 Mg. and 3.3 Mg. | MPY [2]: 2.68 MPY and 2.56 MPY | Weight Loss Mg. [2]: 4.4 Mg. and 4.2 Mg. | MPY [3]: 2.81 MPY and 2.26 MPY | Weight Loss Mg. [3]: 4.6 Mg. and 3.7 Mg. | MPY [4]: 2.44 MPY and 2.38 MPY | Weight Loss Mg. [4]: 4 Mg. and 3.9 Mg. | MPY [5]: 2.2 MPY and 2.26 MPY | Weight Loss Mg. [5]: 3.6 Mg. and 3.7 Mg. | MPY [6]: 1.77 MPY and 1.83 MPY | Weight Loss Mg. [6]: 2.9 Mg. and 3 Mg. | MPY [7]: 1.89 MPY and 2.44 MPY | Weight Loss Mg. [7]: 3.1 Mg. and 4 Mg.

CCCCCCCC/C=C\CCCCCCCC1=NCCN1CCN [Comparative Formulation, Acetate, reference compound]
MPY (500 ppm inhibitor, Acetate): 4.7 MPY and 4.27 MPY | Weight Loss Mg. (500 ppm inhibitor, Acetate): 7.7 Mg. and 7 Mg. | MPY (1000 ppm inhibitor, Acetate): 4.39 MPY and 4.03 MPY | Weight Loss Mg. (1000 ppm inhibitor, Acetate): 7.2 Mg. and 6.6 Mg. | MPY (2000 ppm inhibitor, Acetate): 4.21 MPY and 4.33 MPY | Weight Loss Mg. (2000 ppm inhibitor, Acetate): 6.9 Mg. and 7.1 Mg. | MPY (5000 ppm inhibitor, Acetate): 4.64 MPY and 4.27 MPY | Weight Loss Mg. (5000 ppm inhibitor, Acetate): 7.6 Mg. and 7 Mg. | MPY (10000 ppm inhibitor, Acetate): 4.45 MPY and 4.21 MPY | Weight Loss Mg. (10000 ppm inhibitor, Acetate): 7.3 Mg. and 6.9 Mg. | MPY (20000 ppm inhibitor, Acetate): 4.51 MPY and 4.39 MPY | Weight Loss Mg. (20000 ppm inhibitor, Acetate): 7.4 Mg. and 7.2 Mg. | MPY (50000 ppm inhibitor, Acetate): 4.21 MPY and 4.09 MPY | Weight Loss Mg. (50000 ppm inhibitor, Acetate): 6.9 Mg. and 6.7 Mg.

CC(=O)[O-].CCCCCCCC/C=C\CCCCCCCC1=[N+](CC(O)c2ccccc2)CCN1CCNC1OC(CO)C(O)C(O)C1O (centres unmarked) [Formula 2, (Z)-2-(heptadec-8-en-1-yl)-3-(2-hydroxy-2-phenylethyl)-1-(2-((3,4,5-trihydroxy-6-(hydroxymethyl)tetrahydro-2H-pyran-2-yl)amino)ethyl)-4,5-dihydro-1H-imidazol-3-ium acetate salt]
improvement of % Protection over Comparative Formulation (5 ppm of Corrosion Inhibitor): (100% improvement) | improvement of % Protection over Comparative Formulation (10 ppm of Corrosion Inhibitor): (50% improvement) | improvement of % Protection over Comparative Formulation (25 ppm of Corrosion Inhibitor): (36% improvement) | improvement of % Protection over Comparative Formulation (50 ppm of Corrosion Inhibitor): (33 improvement) % | MPY [8]: 3.48 MPY and 3.17 MPY | Weight Loss Mg. [8]: 5.7 Mg. and 5.2 Mg. | MPY [9]: 3.23 MPY and 3.36 MPY | Weight Loss Mg. [9]: 5.3 Mg. and 5.5 Mg. | MPY [10]: 3.54 MPY and 3.11 MPY | Weight Loss Mg. [10]: 5.8 Mg. and 5.1 Mg. | MPY [11]: 3.23 MPY and 2.99 MPY | Weight Loss Mg. [11]: 5.3 Mg. and 4.9 Mg. | MPY [12]: 2.68 MPY and 2.32 MPY | Weight Loss Mg. [12]: 4.4 Mg. and 3.8 Mg. | MPY [13]: 2.32 MPY and 2.44 MPY | Weight Loss Mg. [13]: 3.8 Mg. and 4.0 Mg. | MPY [14]: 2.50 MPY and 2.44 MPY | Weight Loss Mg. [14]: 4.1 Mg. and 4.0 Mg.

Several values for one entry are separate records, joined by “and”; a condition that tells them apart may be missing. Equal entries are not always repeated.
